Data: patent US20240002445A1 (The United States of America,as represented by the …, priority 2020, published 2024)

Assay: general procedure: Fmoc solid-phase peptide synthesis; 2-Cl-(Trt)-Cl (hydrazine-derivatised for the N-terminal fragment); HBTU/DIPEA
Settings: whole synthesis, scale of the general procedure 0.5 mmol (N-terminal fragment), 0.25 mmol (C-terminal fragme)

Substance: recifin A
- outcome: Recombinant production of recifin A in E. coli failed to produce an active protein, and recifin A and analogues thereof could not successfully be assembled in one fragment using Fmoc solid phase pepti
